Measured values as given in the supplement of paper PMC10338343.
± gives the standard deviation. The list shows a part of the results. The uncertainty is large for many entries.

test system: EfPiwi piRISC loaded with L1MC piRNA (26 nt); assay: pre-steady-state target cleavage rate (min^-1); guide: L1MC piRNA 5'p-UAACUAAAUACUAUGCAAGCUGUAGG; MIWI and MILI are mouse PIWI proteins and EfPiwi is from a freshwater sponge; tags in brackets are library labels; higher = faster piRNA-guided slicing of the target; details: auxiliary factor: 500 nM Ephydatia muelleri Gtsf1
Summary of the method: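 A burst-and-steady-state fit was used to obtain the pre-steady-state cleavage rate. The input data were sequencing reads of uncleaved targets, normalised to depth and to weakly complementary targets, from a […] transcribed, DNA-blocked target RNA library mixed with 1 nM active affinity-purified piRISC holding one synthetic guide, with or without 500 nM GTSF1 partner protein, in HEPES–potassium acetate buffer at 33 °C for 0–8 or 0–960 min. Three trials were pooled and k3 was capped at 0.0001 min^-1.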

**Q.** UCCUGGUACAGCUACGAUAGUAUUUUCAAA was tested. Which “pre-steady-state target cleavage rate” value did it give?
**A.** Its value is 0.000203 ± 0.038.

**Q.** Which “pre-steady-state target cleavage rate” value does the source give for UCCUGGAACAGCUUGCAUACAUUUUAGUUA here?
**A.** The value was 0.00022 ± 0.021.

**Q.** How did the “pre-steady-state target cleavage rate” value turn out when UCCUGGAUGAGCUUGCAUAGUAUUUAUUA was run?
**A.** The value was 0.00268 ± 0.0022.

**Q.** How did the “pre-steady-state target cleavage rate” value turn out when UCCUGGUACAGCUUGCUAUGUAUUUUCAAA was run?
**A.** The value was 0.000465 ± 0.0064.

**Q.** UCCUGGAACAGGUUGCAUAGUAUUUAGAAA was tested. Which “pre-steady-state target cleavage rate” value did it give?
**A.** The value was 0.00261 ± 0.0017.

**Q.** How did the “pre-steady-state target cleavage rate” value turn out when UCCUGGAUGUCGAUGCAUAGUUAUUUAGUUA was run?
**A.** The value was 0.000318 ± 0.0091.

**Q.** Which “pre-steady-state target cleavage rate” value does the source give for UCCUGGAUGAGCAACCAUAGUAUUUAGAAA here?
**A.** Its value is 0.000425 ± 0.012.

**Q.** How did the “pre-steady-state target cleavage rate” value turn out when “UCCUGGUACAGCUUGCAUAGUUAAAUCAAA [g10:g24:cont:t1A]” was run?
**A.** The value was 0.000622 ± 0.0063.

**Q.** UCCUGGAUGUGCUUGCAUACUAUUUAGAAA was tested. Which “pre-steady-state target cleavage rate” value did it give?
**A.** Its value is 0.00185 ± 0.0019.

**Q.** Which “pre-steady-state target cleavage rate” value does the source give for UCCUGGUACAGCUUGCAUAGUAUAUUCAAA here?
**A.** Its value is 0.00341 ± 0.0028.

**Q.** With UCCUGCUACAGCUUGCAUACAAUUUAGUAA as the sequence, how does the “pre-steady-state target cleavage rate” value read?
**A.** Its value is 0.00123 ± 0.0033.

**Q.** UCCUGGAACAGCUAGCAUAGUAUUUACAAA was tested. Which “pre-steady-state target cleavage rate” value did it give?
**A.** Its value is 0.00337 ± 0.0029.

**Q.** For UCCUCCUACAGCUUGGUAAGUAUUUUCAAA, which “pre-steady-state target cleavage rate” value is on record?
**A.** The value was 0.000344 ± 0.0077.

**Q.** For UCCUGGAUCAGCUUGCAUAGUUAAUACAAA, which “pre-steady-state target cleavage rate” value is on record?
**A.** The value was 0.00216 ± 0.0042.

**Q.** How did the “pre-steady-state target cleavage rate” value turn out when UCCUGGAUCAGCAUCCAUAGUAUUUAGUUA was run?
**A.** Its value is 0.00269 ± 0.0023.

**Q.** How did the “pre-steady-state target cleavage rate” value turn out when UCCUCCUACAGCUUGCAUAGUAUUAGUUA was run?
**A.** The value was 0.00402 ± 0.0027.

**Q.** For UCCUCCUACAGCUUGCAUAGUAUUAAGAAA, which “pre-steady-state target cleavage rate” value is on record?
**A.** The value was 0.0051 ± 0.0031.

**Q.** Which “pre-steady-state target cleavage rate” value does the source give for UCCUGGAUGUGCUUGCAUAGUAUUUUCAAA here?
**A.** The value was 0.00086 ± 0.0043.

**Q.** UCCUGGAUCAGCUACCAUAGUAUUUAGUAA was tested. Which “pre-steady-state target cleavage rate” value did it give?
**A.** Its value is 0.00372 ± 0.0052.

**Q.** How did the “pre-steady-state target cleavage rate” value turn out when UCCUGCUACAGCUUGCAUUGUAUUUACAAA was run?
**A.** Its value is 0.00313 ± 0.0028.

**Q.** For UCCUCCUACAGCUUGCAUAGUAUAUAGAAA, which “pre-steady-state target cleavage rate” value is on record?
**A.** Its value is 0.00329 ± 0.0015.

**Q.** How did the “pre-steady-state target cleavage rate” value turn out when UCCUGGAUGAGCUUGGUAAGUAUUUAGUAA was run?
**A.** The value was 0.000782 ± 0.0086.

**Q.** With UCCUGGUACAGCUUGCUAUGUAUUUAGAAA as the sequence, how does the “pre-steady-state target cleavage rate” value read?
**A.** The value was 0.000197 ± 0.018.

**Q.** How did the “pre-steady-state target cleavage rate” value turn out when UCCUGGUACAGCUUGCAUACAAUUUACAAA was run?
**A.** Its value is 0.00157 ± 0.0061.
